Experimental data published in the supplement of paper PMC10849652.
The other results are listed elsewhere or left out.

Protein sequences, listed by entry. Tags and fused reporters are not part of them. Lines headed by an entry give the natural chain unless they say otherwise; changes in a name come on top.
UniProt Q8TAX7: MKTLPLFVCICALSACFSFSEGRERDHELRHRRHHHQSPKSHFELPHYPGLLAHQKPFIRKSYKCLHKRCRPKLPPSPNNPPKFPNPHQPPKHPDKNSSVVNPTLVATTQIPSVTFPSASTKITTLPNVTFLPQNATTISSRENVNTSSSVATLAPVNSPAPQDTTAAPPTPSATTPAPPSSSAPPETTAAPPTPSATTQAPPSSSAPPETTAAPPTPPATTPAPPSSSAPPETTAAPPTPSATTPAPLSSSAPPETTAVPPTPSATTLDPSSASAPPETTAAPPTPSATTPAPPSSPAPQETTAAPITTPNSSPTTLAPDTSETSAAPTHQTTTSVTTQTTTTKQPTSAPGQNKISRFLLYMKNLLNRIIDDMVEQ
UniProt G3V1V0: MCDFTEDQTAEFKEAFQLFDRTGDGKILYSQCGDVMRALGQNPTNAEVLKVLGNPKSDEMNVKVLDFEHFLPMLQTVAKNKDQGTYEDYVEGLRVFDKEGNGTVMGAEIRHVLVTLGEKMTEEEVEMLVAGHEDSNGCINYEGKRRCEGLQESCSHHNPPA
UniProt Q96E29: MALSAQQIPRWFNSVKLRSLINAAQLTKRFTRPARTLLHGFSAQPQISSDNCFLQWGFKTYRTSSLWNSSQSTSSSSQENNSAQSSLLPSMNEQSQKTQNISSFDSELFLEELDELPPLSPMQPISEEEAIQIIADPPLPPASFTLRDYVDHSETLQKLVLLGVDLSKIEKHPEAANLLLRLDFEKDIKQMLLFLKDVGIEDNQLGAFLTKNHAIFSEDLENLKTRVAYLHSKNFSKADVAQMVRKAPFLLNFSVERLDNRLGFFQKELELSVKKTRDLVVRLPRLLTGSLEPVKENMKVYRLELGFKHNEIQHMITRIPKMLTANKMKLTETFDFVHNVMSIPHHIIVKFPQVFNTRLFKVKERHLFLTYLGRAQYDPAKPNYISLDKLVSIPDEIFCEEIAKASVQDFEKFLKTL
UniProt Q9NXD2: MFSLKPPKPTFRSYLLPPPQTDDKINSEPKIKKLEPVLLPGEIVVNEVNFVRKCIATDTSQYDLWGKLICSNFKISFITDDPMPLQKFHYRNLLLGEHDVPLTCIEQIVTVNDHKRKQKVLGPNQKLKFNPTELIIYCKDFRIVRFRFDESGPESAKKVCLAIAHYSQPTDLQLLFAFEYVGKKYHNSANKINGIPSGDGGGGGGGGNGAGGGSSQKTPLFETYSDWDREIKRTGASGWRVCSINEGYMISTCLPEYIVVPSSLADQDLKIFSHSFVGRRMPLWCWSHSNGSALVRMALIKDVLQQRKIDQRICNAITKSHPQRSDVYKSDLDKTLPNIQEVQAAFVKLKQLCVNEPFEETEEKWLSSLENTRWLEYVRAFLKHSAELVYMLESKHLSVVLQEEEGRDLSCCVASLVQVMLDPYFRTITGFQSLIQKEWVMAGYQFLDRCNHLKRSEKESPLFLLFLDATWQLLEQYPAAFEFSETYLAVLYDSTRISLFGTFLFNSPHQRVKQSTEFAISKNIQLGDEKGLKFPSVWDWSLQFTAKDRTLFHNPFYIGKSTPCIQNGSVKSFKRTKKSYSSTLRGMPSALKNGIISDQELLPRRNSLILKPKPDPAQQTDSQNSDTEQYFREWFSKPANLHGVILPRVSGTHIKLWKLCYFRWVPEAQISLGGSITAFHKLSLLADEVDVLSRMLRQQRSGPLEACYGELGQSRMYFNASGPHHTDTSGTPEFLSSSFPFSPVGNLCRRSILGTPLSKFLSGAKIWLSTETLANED
UniProt Q99836, whole entry, looked up: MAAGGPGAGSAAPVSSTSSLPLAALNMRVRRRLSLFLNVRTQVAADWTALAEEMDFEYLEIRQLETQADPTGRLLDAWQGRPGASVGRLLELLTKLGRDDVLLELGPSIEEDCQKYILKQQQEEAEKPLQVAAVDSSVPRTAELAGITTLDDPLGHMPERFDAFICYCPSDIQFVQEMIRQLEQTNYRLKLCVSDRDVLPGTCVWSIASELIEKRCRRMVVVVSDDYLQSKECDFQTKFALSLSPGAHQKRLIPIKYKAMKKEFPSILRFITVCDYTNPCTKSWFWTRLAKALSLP
UniProt P13640: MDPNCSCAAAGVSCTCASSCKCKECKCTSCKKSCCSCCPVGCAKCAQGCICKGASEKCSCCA
UniProt P00414, whole entry, looked up: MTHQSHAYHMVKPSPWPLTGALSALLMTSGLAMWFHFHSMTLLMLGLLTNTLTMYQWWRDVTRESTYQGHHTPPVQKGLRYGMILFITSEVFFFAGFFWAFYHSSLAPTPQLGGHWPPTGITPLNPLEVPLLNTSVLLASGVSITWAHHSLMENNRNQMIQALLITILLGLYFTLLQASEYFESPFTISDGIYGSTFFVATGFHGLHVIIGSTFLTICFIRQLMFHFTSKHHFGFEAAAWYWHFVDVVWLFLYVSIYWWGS
MTHFD1, A0A384N5Y3, UniProt A0A384N5Y3, whole entry, looked up: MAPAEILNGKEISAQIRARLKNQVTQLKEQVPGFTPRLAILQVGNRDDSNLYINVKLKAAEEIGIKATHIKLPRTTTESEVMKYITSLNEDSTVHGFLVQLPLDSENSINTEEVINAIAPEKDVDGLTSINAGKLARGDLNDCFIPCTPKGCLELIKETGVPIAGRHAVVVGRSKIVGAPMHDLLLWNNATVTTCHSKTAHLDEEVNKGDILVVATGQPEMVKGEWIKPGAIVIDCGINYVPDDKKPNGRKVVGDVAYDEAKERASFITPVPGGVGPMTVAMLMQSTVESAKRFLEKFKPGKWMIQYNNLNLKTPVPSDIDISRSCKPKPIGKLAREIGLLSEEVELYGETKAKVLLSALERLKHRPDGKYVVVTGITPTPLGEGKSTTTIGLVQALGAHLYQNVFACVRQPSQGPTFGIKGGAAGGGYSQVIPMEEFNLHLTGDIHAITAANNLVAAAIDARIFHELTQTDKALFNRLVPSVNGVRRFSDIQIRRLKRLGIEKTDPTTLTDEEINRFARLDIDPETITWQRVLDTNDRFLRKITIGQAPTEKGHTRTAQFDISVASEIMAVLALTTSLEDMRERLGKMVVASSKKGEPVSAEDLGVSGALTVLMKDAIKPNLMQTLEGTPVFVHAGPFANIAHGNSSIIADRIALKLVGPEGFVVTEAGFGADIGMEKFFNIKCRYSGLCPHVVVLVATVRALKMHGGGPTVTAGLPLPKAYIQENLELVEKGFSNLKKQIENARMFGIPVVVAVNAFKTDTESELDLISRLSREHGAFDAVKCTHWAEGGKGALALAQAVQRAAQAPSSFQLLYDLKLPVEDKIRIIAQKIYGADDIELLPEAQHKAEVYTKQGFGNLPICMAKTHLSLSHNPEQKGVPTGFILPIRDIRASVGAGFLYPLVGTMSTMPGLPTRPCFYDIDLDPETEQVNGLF
UniProt Q15746, whole entry, looked up: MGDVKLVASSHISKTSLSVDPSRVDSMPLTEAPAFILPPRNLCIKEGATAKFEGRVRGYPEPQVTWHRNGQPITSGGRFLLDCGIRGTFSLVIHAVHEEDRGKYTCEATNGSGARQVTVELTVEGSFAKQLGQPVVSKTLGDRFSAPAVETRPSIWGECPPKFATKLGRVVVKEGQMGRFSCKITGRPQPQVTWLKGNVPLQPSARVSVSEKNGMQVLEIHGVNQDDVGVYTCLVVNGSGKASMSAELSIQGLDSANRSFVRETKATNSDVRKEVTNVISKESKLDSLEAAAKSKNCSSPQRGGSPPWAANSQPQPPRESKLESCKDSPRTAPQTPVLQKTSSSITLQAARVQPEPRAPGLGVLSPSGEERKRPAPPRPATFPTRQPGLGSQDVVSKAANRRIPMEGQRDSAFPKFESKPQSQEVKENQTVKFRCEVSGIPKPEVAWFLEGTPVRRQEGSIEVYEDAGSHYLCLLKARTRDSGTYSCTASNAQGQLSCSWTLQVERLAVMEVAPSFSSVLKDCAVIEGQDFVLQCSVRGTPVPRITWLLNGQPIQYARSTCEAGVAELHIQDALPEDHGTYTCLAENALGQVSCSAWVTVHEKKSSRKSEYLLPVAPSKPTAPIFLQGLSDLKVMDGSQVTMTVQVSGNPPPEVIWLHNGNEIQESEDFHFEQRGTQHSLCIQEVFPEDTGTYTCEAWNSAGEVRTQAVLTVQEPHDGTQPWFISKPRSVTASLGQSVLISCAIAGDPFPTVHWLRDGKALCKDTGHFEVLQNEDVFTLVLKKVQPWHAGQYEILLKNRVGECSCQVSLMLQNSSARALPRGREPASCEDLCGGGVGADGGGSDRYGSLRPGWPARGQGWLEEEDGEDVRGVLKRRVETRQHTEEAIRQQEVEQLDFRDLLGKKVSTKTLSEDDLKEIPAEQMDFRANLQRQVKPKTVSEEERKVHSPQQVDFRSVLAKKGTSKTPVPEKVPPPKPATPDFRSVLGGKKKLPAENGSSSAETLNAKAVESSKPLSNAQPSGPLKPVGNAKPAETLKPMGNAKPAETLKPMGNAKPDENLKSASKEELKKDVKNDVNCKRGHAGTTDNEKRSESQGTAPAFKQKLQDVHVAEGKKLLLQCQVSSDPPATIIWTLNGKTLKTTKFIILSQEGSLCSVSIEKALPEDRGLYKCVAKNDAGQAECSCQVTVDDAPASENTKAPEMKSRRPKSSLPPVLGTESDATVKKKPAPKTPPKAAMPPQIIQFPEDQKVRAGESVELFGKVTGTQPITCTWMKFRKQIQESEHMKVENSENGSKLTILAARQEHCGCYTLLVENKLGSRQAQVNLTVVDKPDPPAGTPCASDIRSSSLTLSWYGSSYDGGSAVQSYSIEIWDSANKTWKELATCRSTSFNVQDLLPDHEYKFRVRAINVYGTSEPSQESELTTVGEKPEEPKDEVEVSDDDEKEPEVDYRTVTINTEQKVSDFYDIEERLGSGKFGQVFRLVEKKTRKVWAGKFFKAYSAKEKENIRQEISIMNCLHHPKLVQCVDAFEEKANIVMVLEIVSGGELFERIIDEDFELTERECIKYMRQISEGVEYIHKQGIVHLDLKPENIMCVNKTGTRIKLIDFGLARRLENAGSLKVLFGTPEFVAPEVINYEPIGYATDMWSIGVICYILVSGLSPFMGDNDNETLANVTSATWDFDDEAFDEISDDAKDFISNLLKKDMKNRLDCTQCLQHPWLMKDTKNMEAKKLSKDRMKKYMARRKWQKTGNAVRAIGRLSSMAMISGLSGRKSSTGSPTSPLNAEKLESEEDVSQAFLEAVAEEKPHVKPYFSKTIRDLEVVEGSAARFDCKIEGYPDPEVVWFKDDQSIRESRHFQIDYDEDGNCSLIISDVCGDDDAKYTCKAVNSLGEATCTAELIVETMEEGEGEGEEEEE
UniProt Q9H019: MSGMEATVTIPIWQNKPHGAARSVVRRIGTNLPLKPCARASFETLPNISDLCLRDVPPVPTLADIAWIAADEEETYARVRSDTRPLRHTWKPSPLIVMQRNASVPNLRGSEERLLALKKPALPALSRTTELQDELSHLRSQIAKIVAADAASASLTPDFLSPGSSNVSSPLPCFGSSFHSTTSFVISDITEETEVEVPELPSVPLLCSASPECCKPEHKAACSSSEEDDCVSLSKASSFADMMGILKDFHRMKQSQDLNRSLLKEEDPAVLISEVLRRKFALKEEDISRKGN
UniProt Q7Z6M4: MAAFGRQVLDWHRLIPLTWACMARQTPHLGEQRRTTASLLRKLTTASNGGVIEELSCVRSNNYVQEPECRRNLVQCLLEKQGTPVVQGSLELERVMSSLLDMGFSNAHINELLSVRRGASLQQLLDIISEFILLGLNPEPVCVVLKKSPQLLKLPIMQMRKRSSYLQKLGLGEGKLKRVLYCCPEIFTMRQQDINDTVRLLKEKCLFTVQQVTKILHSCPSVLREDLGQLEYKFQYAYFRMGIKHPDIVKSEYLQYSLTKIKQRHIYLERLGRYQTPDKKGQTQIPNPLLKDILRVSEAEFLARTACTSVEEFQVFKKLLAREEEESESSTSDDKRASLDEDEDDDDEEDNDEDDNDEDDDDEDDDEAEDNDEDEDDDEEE
UniProt Q9Y2Z2: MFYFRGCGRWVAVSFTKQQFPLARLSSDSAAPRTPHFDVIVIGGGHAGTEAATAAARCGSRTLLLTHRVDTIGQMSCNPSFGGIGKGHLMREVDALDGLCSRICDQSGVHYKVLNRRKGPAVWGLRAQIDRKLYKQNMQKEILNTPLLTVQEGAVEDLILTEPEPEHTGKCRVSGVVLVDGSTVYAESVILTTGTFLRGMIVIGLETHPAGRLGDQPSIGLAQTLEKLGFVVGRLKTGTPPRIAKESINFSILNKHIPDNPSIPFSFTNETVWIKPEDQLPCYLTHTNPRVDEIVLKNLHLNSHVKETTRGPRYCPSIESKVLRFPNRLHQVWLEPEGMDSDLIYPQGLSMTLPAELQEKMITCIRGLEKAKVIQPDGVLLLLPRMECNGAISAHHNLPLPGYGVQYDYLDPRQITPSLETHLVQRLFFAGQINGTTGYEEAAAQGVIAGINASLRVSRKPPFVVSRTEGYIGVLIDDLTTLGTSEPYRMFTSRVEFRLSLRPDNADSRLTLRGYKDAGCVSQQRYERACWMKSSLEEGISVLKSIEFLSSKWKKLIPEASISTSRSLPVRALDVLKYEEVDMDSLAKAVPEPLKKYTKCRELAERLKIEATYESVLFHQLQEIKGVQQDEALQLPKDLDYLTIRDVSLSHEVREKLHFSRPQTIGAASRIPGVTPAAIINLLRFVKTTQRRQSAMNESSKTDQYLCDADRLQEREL

compound: CN(CCOC1=CC=C(C=C1)C[C@H]2C(=O)NC(=O)S2)C3=CC=CC=N3 (racemic) [rosiglitazone]; test: log2 fold change, soluble protein after heating vs DMSO (PISA); higher = thermal stabilisation; K562 cells, 10 uM, 30 min; active = over 0.2 and 3.5 SD of the protein, either way, in both replicates (recomputed)
Summary of the method: (§1)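 Soluble protein was quantified by TMTpro 16plex LC-MS/MS after channel sums were equalised. It was obtained as the supernatant after 21,000xg for 90 min from pooled aliquots of K562 cells (2×10^6 cells/mL, 10 μM compound, 30 min) heated for 3 min across 48°C-58°C and extracted in PBS with 0.5% NP-40 at 4°C. Thermal stability values are relative to control samples and come from duplicates. They are given as log2 fold changes.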

log2 fold change, inactive:
MXRA8 isoform 2 (UniProt Q9BRK3) 0.065
MUC7 (UniProt Q8TAX7) 0.026
MTHFSD isoform 3 (UniProt Q2M296) -0.107
MYL6 (UniProt G3V1V0) 0.144
MTCH2 (UniProt E9PIE4) -0.009
MYO9A isoform 4 (UniProt B2RTY4) 0.007
MYO18B isoform 3 (UniProt Q8IUG5) 0
MTERF3 (UniProt Q96E29) 0.035
MRPS14 (UniProt O60783) -0.024
MRPS18C (UniProt Q9Y3D5) -0.241
MTMR10 (UniProt Q9NXD2) 0.366
MT-CO1 (UniProt P00395) 0.01
MYD88 isoform 6 (UniProt Q99836) -0.456
MT1G (UniProt P13640) 0.002
MTMR1 (UniProt Q13613) -0.043

compound: CN1C2=C(C3=C1C(=O)N(N=C3)CC4=CC(=CC=C4)N)SC(=C2)S(=O)C; test: as above
Summary of the method: as §1

log2 fold change, inactive:
MT-ND1 (UniProt P03886) -0.115
MTHFSD isoform 3 (UniProt Q2M296) 0.173
MYL6 (UniProt G3V1V0) 0.035
MRPS15 (UniProt P82914) 0.049
MTCH2 (UniProt E9PIE4) -0.083
MYO9A isoform 4 (UniProt B2RTY4) 0.029
MTERF3 (UniProt Q96E29) 0.209
MT-CO3 (UniProt P00414) -0.164
MRPS14 (UniProt O60783) 0.032
MTHFD1, A0A384N5Y3 -0.084
MTHFD1 (UniProt P11586) -0.057
MYLK (UniProt Q15746) -0.126
MRPS18C (UniProt Q9Y3D5) 0.008
MTA3 (UniProt Q9BTC8) 0.103
MTMR14 (UniProt Q8NCE2) 0.022
MT1G (UniProt P13640) -0.002
MTFR1L (UniProt Q9H019) 0.013
MRPS21 (UniProt P82921) -0.205
MTMR1 (UniProt Q13613) 0.156
MRPS26 (UniProt Q9BYN8) 0.052
MTERF4 (UniProt Q7Z6M4) -0.01
MTO1 isoform 6 (UniProt Q9Y2Z2) -0.012
